Laboratory results taken from the supplement of paper PMC3334620.
The full ranking holds about 33,000 sequences; the median of “E-score (-0.5 to 0.5)” is about -8e-05, and the highest 2% start at about 0.23. The list shows a part of the results.

Biological target: T1, Nrg2 (UniProt P38082)
T1 sequence: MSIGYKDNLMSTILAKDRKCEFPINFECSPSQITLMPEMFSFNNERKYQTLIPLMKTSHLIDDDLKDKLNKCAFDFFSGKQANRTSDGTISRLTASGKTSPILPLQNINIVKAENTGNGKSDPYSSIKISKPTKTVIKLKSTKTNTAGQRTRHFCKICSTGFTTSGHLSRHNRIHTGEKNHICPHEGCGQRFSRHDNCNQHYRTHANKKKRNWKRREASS
Assay: PBM E-score (8-mer binding enrichment) (E-score (-0.5 to 0.5)); higher = stronger / more preferred TF binding
Details: protein concentration: 100 nM; construct: GST-full length
Procedure, shortened: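 PURExpress in vitro transcription/translation supplied GST-tagged yeast transcription factors, either full-length or DNA-binding domain. Applied at about 100-200 nM to universal all-10-mer Agilent arrays double-stranded by primer extension, the bound protein was detected with fluorescent anti-GST. E-scores, modified Wilcoxon-Mann-Whitney statistics, were given by the Universal PBM Analysis Suite to ungapped eight-base words pooled with their reverse complements after masliner normalisation.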

First: GAACTCGC
Second: TCTCAACA
The “PBM E-score” value of the first is lower: -0.0686 for the first, 0.0641 for the second.

Compared with CCCGCGCC, AGTAGCCG is higher in “PBM E-score” value: -0.0567 for the first, 0.072 for the second.

Going from ACTTCCAG to AATTAGCG, the “PBM E-score” value rises from -0.108 to 0.0979.

First: AGAACGTA
Second: AGGTCCGA
The “PBM E-score” value of the first is lower: 0.0133 for the first, 0.0912 for the second.

First: CTAGCTCC
Second: ACTCTTCT
The “PBM E-score” value of the first is lower: -0.153 for the first, 0.0002 for the second.

Going from GAAGAGGA to AATGTCTC, the “PBM E-score” value rises from -0.319 to 0.0137.

Compared with ATTCTAAG, CCCTCCCC is higher in “PBM E-score” value: -0.105 for the first, 0.00621 for the second.

First: AACAATGA
Second: CCACCCCG
The “PBM E-score” value of the first is higher: 0.0419 for the first, -0.0386 for the second.

Going from CCTCAAAC to AGACGACA, the “PBM E-score” value rises from 0.0223 to 0.0291.

First: ATATCTGA
Second: ACCATAAG
The “PBM E-score” value of the first is higher: 0.183 for the first, -0.0907 for the second.

Going from GAGATTGA to ACCTGGAA, the “PBM E-score” value rises from 0.0287 to 0.203.

Compared with ATGCCGCA, CATTCCCA is lower in “PBM E-score” value: 0.172 for the first, -0.00455 for the second.

First: CAGGGATA
Second: TTCACAAA
The “PBM E-score” value of the first is higher: 0.286 for the first, -0.0254 for the second.

Going from GACCAAGA to CAGACGTA, the “PBM E-score” value falls from 0.0552 to -0.181.

First: AAACCGCC
Second: CCCAGCTA
The “PBM E-score” value of the first is higher: 0.041 for the first, -0.0456 for the second.

Compared with GCTCATCC, ACGCCCCC is lower in “PBM E-score” value: 0.0527 for the first, -0.156 for the second.

Compared with CGCACGTA, TTACCTAA is lower in “PBM E-score” value: -0.00821 for the first, -0.0262 for the second.

First: GGGCGTAC
Second: GAATATTA
The “PBM E-score” value of the first is lower: 0.0663 for the first, 0.232 for the second.

Compared with CCAATGCG, CTGCGGTA is higher in “PBM E-score” value: -0.127 for the first, -0.00643 for the second.

Compared with ACCATTTA, GTTGAAGA is higher in “PBM E-score” value: -0.00179 for the first, 0.0239 for the second.

Compared with GACACTAA, AAGATCAA is lower in “PBM E-score” value: 0.131 for the first, 0.088 for the second.

Compared with ATCTATGC, TCTCGTCA is lower in “PBM E-score” value: 0.117 for the first, 0.0764 for the second.

Going from CCGACTAA to GATCTCAC, the “PBM E-score” value rises from -0.134 to -0.0162.

First: AATTAATC
Second: GTTGCAAA
The “PBM E-score” value of the first is lower: 0.0951 for the first, 0.158 for the second.

Going from AATAGCCA to CTCCGCGC, the “PBM E-score” value falls from 0.035 to -0.0513.

First: CTGCATGC
Second: AGGGTCTC
The “PBM E-score” value of the first is lower: 0.144 for the first, 0.308 for the second.

First: AGTGCCTC
Second: CGCGATAG
The “PBM E-score” value of the first is lower: -0.108 for the first, 0.15 for the second.

Going from ATCGTACG to AACAGCCC, the “PBM E-score” value falls from 0.086 to -0.136.

Compared with GAGAACTC, AAACGCAC is higher in “PBM E-score” value: -0.111 for the first, -0.00143 for the second.

Going from CCCAGGTA to CAATGGGC, the “PBM E-score” value rises from -0.151 to -0.0843.

Going from CCCCTCGA to GCTTATAC, the “PBM E-score” value falls from 0.121 to -0.208.

Compared with TCTGGAAA, AGAGAGTA is lower in “PBM E-score” value: 0.0743 for the first, -0.0585 for the second.

Compared with GAGGCAAC, ACGTCCAA is higher in “PBM E-score” value: -0.192 for the first, -0.0568 for the second.

Compared with GTTGGTAA, CGCTGCTA is lower in “PBM E-score” value: -0.043 for the first, -0.0942 for the second.

Going from TCCACCGA to AAGGGATG, the “PBM E-score” value falls from -0.0753 to -0.0799.

Going from CGTGGAGA to ATGAGCGG, the “PBM E-score” value falls from -0.0602 to -0.0809.

Compared with GGCTTAAC, ACGATTCG is higher in “PBM E-score” value: -0.0343 for the first, 0.107 for the second.

Compared with TACTGCTA, AGGGCCCT is higher in “PBM E-score” value: 0.0534 for the first, 0.432 for the second.

First: AAACACAT
Second: ATCTGCTC
The “PBM E-score” value of the first is higher: 0.118 for the first, -0.0264 for the second.

First: GCAGGTTA
Second: AAATGACT
The “PBM E-score” value of the first is higher: -0.0237 for the first, -0.0401 for the second.

Compared with ACTGCGGG, ATCAGACG is higher in “PBM E-score” value: 0.00944 for the first, 0.0404 for the second.

Going from AGTCGTAC to ATCCTCGG, the “PBM E-score” value rises from -0.0754 to 0.0757.

First: AGAATAGC
Second: TGGAGCAA
The “PBM E-score” value of the first is higher: 0.117 for the first, 0.0576 for the second.

First: ACGAGGGG
Second: GCGTTGAC
The “PBM E-score” value of the first is lower: -0.201 for the first, -0.0746 for the second.

First: CCCAATAA
Second: AGCCATTG
The “PBM E-score” value of the first is higher: 0.0301 for the first, 0.0047 for the second.

First: AAAGTCAT
Second: AGGACTAA
The “PBM E-score” value of the first is higher: -0.0344 for the first, -0.0768 for the second.

Going from CACGAGGG to GAGCGGAA, the “PBM E-score” value rises from -0.0848 to 0.182.

Going from AATGTGAC to AGATCCAC, the “PBM E-score” value falls from 0.168 to 0.105.

First: ACAGGTAG
Second: AGCAAGGA
The “PBM E-score” value of the first is lower: -0.129 for the first, -0.0607 for the second.

First: CGTGTGCA
Second: AAACGCGC
The “PBM E-score” value of the first is lower: -0.102 for the first, 0.0818 for the second.

First: CAAGTGGG
Second: CACCCGTC
The “PBM E-score” value of the first is lower: -0.088 for the first, -0.0242 for the second.

Going from ACTCACTG to AAGTGTAA, the “PBM E-score” value falls from 0.00588 to -0.0105.

Compared with CAACGGCC, AACAACAA is higher in “PBM E-score” value: -0.0402 for the first, 0.1 for the second.

Going from TCAGTGCA to AAAGGTTC, the “PBM E-score” value falls from 0.0253 to -0.0576.

Going from AGAATACG to CACAACAG, the “PBM E-score” value falls from -0.098 to -0.125.

First: CTTGGTCC
Second: AAGGGAAG
The “PBM E-score” value of the first is higher: 0.0286 for the first, -0.00193 for the second.

Going from AACCGGGA to CAGCAGGA, the “PBM E-score” value falls from 0.0291 to -0.0714.

Compared with GAACACAC, CAAATCCG is lower in “PBM E-score” value: -0.0346 for the first, -0.112 for the second.

First: CAATGGTC
Second: CACTGCCA
The “PBM E-score” value of the first is lower: 0.0134 for the first, 0.0346 for the second.

First: AAGGTGTA
Second: ACTGGCTG
The “PBM E-score” value of the first is lower: -0.0479 for the first, -0.0262 for the second.

Compared with ACAACTCC, GCGACTAC is lower in “PBM E-score” value: 0.13 for the first, 0.0831 for the second.

Compared with CCATGCAA, AAAGCATT is lower in “PBM E-score” value: 0.247 for the first, -0.0472 for the second.

Compared with AACCCAGT, CGATCTAA is higher in “PBM E-score” value: -0.00769 for the first, 0.00408 for the second.

First: GGGGGACC
Second: CTATACGC
The “PBM E-score” value of the first is lower: -0.261 for the first, 0.0606 for the second.

First: CTGCTTCC
Second: AGAAGTTC
The “PBM E-score” value of the first is lower: -0.12 for the first, -0.0862 for the second.

Going from CAGTCCCA to AGCCTGGG, the “PBM E-score” value rises from -0.189 to -0.159.

Going from CAACCTAG to AATGCTCC, the “PBM E-score” value falls from -0.0396 to -0.191.

Compared with ATAATGGC, GTCGAAAA is higher in “PBM E-score” value: 0.0701 for the first, 0.172 for the second.

Going from ATCCGGGG to TAAAACTA, the “PBM E-score” value falls from 0.134 to 0.0863.

Compared with AATTAACA, TGGCGACA is lower in “PBM E-score” value: 0.207 for the first, 0.00499 for the second.

Going from AGCTGTGA to CTTTAGTA, the “PBM E-score” value rises from -0.0158 to -0.00347.

Compared with AGAATGAT, CAATAGTA is lower in “PBM E-score” value: 0.065 for the first, 0.031 for the second.

Going from AAGTACTC to GTTGTCCA, the “PBM E-score” value rises from -0.0318 to 0.124.

Going from GTTCGTAA to AAATCCAG, the “PBM E-score” value rises from -0.0741 to 0.196.

Compared with ACGCTTAT, GACCAGGC is lower in “PBM E-score” value: -0.112 for the first, -0.197 for the second.

Compared with AGAGACAG, GTGCAGAA is lower in “PBM E-score” value: 0.0857 for the first, -0.134 for the second.

First: AGATTAGC
Second: CTAGGATC
The “PBM E-score” value of the first is lower: -0.0167 for the first, 0.00898 for the second.

First: ATTTGGAA
Second: TAATTCCA
The “PBM E-score” value of the first is lower: 0.0293 for the first, 0.0521 for the second.

Compared with CTTGCGAC, AACTCCAC is higher in “PBM E-score” value: -0.142 for the first, -0.00775 for the second.

Compared with AAGGTCAA, GCAGAGCA is lower in “PBM E-score” value: -0.0299 for the first, -0.156 for the second.

Compared with GAGTCCTA, ATAGGGTA is higher in “PBM E-score” value: -0.166 for the first, 0.17 for the second.

First: ATCGAGCC
Second: CGGCCCCA
The “PBM E-score” value of the first is higher: -0.103 for the first, -0.253 for the second.

Going from GCTTAACA to CATGCATA, the “PBM E-score” value rises from -0.0681 to 0.0326.

Going from TGAAGGCA to CTCACATA, the “PBM E-score” value rises from 0.00885 to 0.0352.

Compared with TAGTGGAA, TCGGTGCA is higher in “PBM E-score” value: -0.0809 for the first, -0.0187 for the second.

Going from CCGGCAGA to CGGCGATC, the “PBM E-score” value falls from -0.0781 to -0.11.
